Laboratory results from publication PMC8816382.
These are yes or no findings as the source states them, for the method shown. Binding seen in cells or lysates may run through a third protein. Some binding calls cover weakened binding; strength is not graded here.

Sequences of proteins named here, by UniProt entry; tags and fusion partners are left off.
UniProt Q8N668: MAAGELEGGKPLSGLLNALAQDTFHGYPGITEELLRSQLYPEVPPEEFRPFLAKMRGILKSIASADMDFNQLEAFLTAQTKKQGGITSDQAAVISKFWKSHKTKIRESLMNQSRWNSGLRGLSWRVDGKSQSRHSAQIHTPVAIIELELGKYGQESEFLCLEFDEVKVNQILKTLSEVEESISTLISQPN
UniProt Q567U6: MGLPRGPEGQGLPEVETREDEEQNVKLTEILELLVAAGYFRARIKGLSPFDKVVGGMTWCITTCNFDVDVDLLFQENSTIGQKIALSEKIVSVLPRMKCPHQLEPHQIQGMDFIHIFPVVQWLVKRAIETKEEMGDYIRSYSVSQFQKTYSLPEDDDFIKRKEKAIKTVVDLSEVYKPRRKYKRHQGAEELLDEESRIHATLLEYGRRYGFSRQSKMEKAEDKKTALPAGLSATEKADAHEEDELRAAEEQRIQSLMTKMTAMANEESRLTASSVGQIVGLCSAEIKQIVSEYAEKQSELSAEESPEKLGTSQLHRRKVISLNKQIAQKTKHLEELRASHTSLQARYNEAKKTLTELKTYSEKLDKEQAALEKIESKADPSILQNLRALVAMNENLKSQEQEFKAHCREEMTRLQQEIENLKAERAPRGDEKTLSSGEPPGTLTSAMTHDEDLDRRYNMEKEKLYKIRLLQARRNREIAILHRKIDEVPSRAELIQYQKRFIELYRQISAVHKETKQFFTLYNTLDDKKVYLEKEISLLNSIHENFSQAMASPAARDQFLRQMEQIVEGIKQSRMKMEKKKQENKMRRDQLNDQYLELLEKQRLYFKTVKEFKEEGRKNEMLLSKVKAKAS

Biological target: 3xHA-COMMD1 (UniProt Q8N668)
Test: co-IP; HeLa lysates (Pierce IP lysis buffer with protease and phosphatase inhibitors) incubated with goat anti-HA antibody agarose beads overnight at 4°C; precipitates immunoblotted for CCDC93 and HA; co-precipitated CCDC93 normalised to the COMMD1 pulled down, three experiments

## CCDC93 (coiled-coil domain containing 93) (from UniProt Q567U6 1-631)
  binding: binds
